# Assay results from PubChem BioAssay AID1347076 (National Center for Advancing Translational Sciences (NCATS), 2019).
# Out of some 400,000 compounds screened, about 13,000 (3.2%) were called active. Inconclusive means that the source gave no clear call. Such entries were picked first, then a sample of the others. Calls come from the whole dose curve; as a rule, active = well fitted cell-killing curve with a large enough effect; inconclusive = small, poorly fitted or top-dose-only effect, or effect the other way; inactive = flat fitted curve, though single readings scatter. Potencies of inconclusive entries are doubtful fits and often do not repeat.
# Test: qHTS assay for MDR1-selective chemotherapeutics: Primary screen using the drug-selected MDR subline cells KB-V1; note: nearly all actives have a fitted effect of over 60% in size
# Conditions: KB-V1 MDR cells viability, CellTiter-Glo, 72 h; activity change, negative = cytotoxicity: at 46.1 µM (top of the series)
# Summary of the method: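 Cytotoxicity via CellTiter-Glo luminescence after 72 h compound exposure at 37 degrees C. Cells: drug-selected KB-V1 line, DMEM phenol-red free plus 10% FBS. Compounds tested at multiple concentrations; normalized data fitted to concentration-effect curves.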
# % is set by controls: 0 for no effect and ±100 for the full control effect; potency is the fitted concentration of half-maximal effect.
SMILES,Potency,"activity change, negative = cytotoxicity"
COc1ccc(C(C)NC(=O)c2ccc(Br)cc2)cc1OC (configuration not stated),active: 16.4 µM,
Cc1cccc(N2CCN(S(=O)(=O)c3ccc(-c4cc(C)no4)s3)CC2C)c1 (configuration not stated),"inconclusive: 29.1 µM [rising, single point]",
CCSc1ccccc1C(=O)NCCc1ccccc1,"inconclusive: 29.1 µM [rising, single point]",
O=C(NCCc1ccccc1)c1ccc(NC(=O)C2CC2)cc1,"inconclusive: 29.1 µM [rising, single point]",
CCc1ccc(/C(C)=N\Nc2ccc([N+](=O)[O-])cc2)cc1,,inactive: -29.9%
COCc1cc(=O)[nH]c(/N=C(\N)Nc2cccc(C)c2)n1,"inconclusive: 23.1 µM [rising, partial curve, poor fit]",
Cc1cc(NC(=O)CSc2nnc(N)s2)c([N+](=O)[O-])cc1C,"inconclusive: 29.1 µM [cytotoxic, single point]",
O=C(Nc1ccc2c(c1)OCCO2)C(C1CC1)n1c(=O)c(-c2cc3ccccc3[nH]2)nc2ccccc21 (configuration not stated),"inconclusive: 23.1 µM [cytotoxic, single point]",
COc1ccc2[nH]c(=O)c(COC(=O)c3ccco3)cc2c1,"inconclusive: 20.6 µM [cytotoxic, single point]",
COc1ccc(CNC(=O)c2ccc3ccccc3n2)cc1OC,active: 7.31 µM,
CCN(CC)S(=O)(=O)c1ccc(NC(=O)c2ccc(CN3CCOCC3)cc2)cc1,"inconclusive: 0.651 µM [cytotoxic, full curve, poor fit]",
COc1cccc(/C=N/n2c(-c3ccco3)nc3ccccc3c2=O)c1,active: 2.59 µM,
O=C(NCCN1C(=O)S/C(=C\c2ccc(OC(F)F)cc2)C1=O)[C@@H]1CCCN1C(=O)c1cccs1,"inconclusive: 13 µM [cytotoxic, partial curve]",
O=C(CS(=O)(=O)Cc1ccccc1)Nc1ccc(S(=O)(=O)N2CCCCCC2)cc1,,inactive: -21.6%
Cc1ccc(C)c(NC(=O)COC(=O)c2ccc(S(=O)(=O)N3CCCC3)cc2)c1,"inconclusive: 32.6 µM [cytotoxic, single point]",
Cc1ccccc1C1=Nn2c(nnc2-c2ccco2)SC1,"inconclusive: 16.4 µM [cytotoxic, single point]",
NC(N)=N/N=C/c1cccc(Cl)c1Cl,"inconclusive: 29.1 µM [cytotoxic, single point]",
O=C(NCc1ccc2c(c1)CCN2C(=O)c1ccc(F)cc1)c1ccc(Br)o1,active: 2.59 µM,
COc1ccc(S(=O)(=O)N2CCCCCC2)cc1C(=O)N(C)CC(=O)Nc1ccc(Cl)c(Cl)c1,,inactive: -24%
CC(C)[C@H](NC(=O)c1ccccc1F)C(=O)OCCN1C(=O)c2ccccc2C1=O,active: 14.6 µM,
CCCOc1cccc(OCCSc2nc(C)cc(=O)[nH]2)c1,"inconclusive: 18.4 µM [cytotoxic, single point]",
Cc1cc(C)n2c(NC3CCCC3)c(-c3cc4ccccc4o3)nc2n1,"inconclusive: 11.6 µM [cytotoxic, partial curve]",
COc1ccc(OCCOC(=O)CN2C(=O)NC3(CCCC3)C2=O)cc1,"inconclusive: 29.1 µM [cytotoxic, single point]",
CCN(CC)S(=O)(=O)c1ccc(OCC2CCCCO2)c([N+](=O)[O-])c1 (configuration not stated),"inconclusive: 3.66 µM [cytotoxic, partial curve, poor fit]",

# Ordered by molecular weight (low to high): 5 of the compounds above.
SMILES,Potency,"activity change, negative = cytotoxicity"
CCSc1ccccc1C(=O)NCCc1ccccc1,"inconclusive: 29.1 µM [rising, single point]",
COCc1cc(=O)[nH]c(/N=C(\N)Nc2cccc(C)c2)n1,"inconclusive: 23.1 µM [rising, partial curve, poor fit]",
Cc1ccccc1C1=Nn2c(nnc2-c2ccco2)SC1,"inconclusive: 16.4 µM [cytotoxic, single point]",
CCN(CC)S(=O)(=O)c1ccc(OCC2CCCCO2)c([N+](=O)[O-])c1 (configuration not stated),"inconclusive: 3.66 µM [cytotoxic, partial curve, poor fit]",
CC(C)[C@H](NC(=O)c1ccccc1F)C(=O)OCCN1C(=O)c2ccccc2C1=O,active: 14.6 µM,

# Next compounds:

SMILES,Potency,"activity change, negative = cytotoxicity"
CC(O)(c1cccc(F)c1)c1nc(-c2ccccc2)cs1 (configuration not stated),,inactive: 4.07%
CCCc1cc(=O)oc2cc(OCC(=O)Nc3ccc4c(c3)OCCO4)ccc12,,inactive: 5.58%
O=S(=O)(Nc1ccc(-c2csc(-c3ccccc3)n2)cc1)c1ccccc1,,inactive: -1.99%
Cc1cccc(N(C(=O)CCC(=O)Nc2cc(C)on2)C(C(=O)NC2CCCC2)c2ccccc2)c1 (configuration not stated),"inconclusive: 9.2 µM [cytotoxic, partial curve]",
CCCC(=O)NC(c1ccccc1)c1ccc2cccnc2c1O (configuration not stated),"inconclusive: 0.92 µM [cytotoxic, full curve]",
COc1ccccc1NC(=O)N1CC(=O)Nc2sc3c(c2C1c1ccccc1)CCCC3 (configuration not stated),,inactive: 10.3%
O=C(Nc1ccc(S(=O)(=O)Nc2ccccc2)cc1)N1CCCC1,,inactive: 14.1%
O=C(NC(=S)Nc1ccc2[nH]c(=O)[nH]c2c1)c1cc(Br)ccc1Cl,"inconclusive: 32.6 µM [rising, single point]",
COc1ccc(Cl)cc1NC(=O)CSc1nnc(-c2ccncc2)n1CC1CCCO1 (configuration not stated),,inactive: -11.2%
Clc1ccc(CSc2nnc(-c3ccccn3)n2Cc2ccco2)cc1Cl,"inconclusive: 10.3 µM [cytotoxic, partial curve]",
COc1ccc(Cl)cc1NC(=O)COC(=O)c1c(-c2ccccc2)noc1C,,inconclusive: -2.91%
O=C(CSc1ccncc1)Nc1ccc2ccccc2c1,"inconclusive: 20.6 µM [cytotoxic, single point]",
COc1ccccc1NC(=S)NNC(=O)c1nn(C)c(C)c1Br,"inconclusive: 16.4 µM [cytotoxic, single point]",
CCCCNC(=O)/C=C/c1cccs1,"inconclusive: 23.1 µM [rising, single point]",
Cc1ccc(CNC(=O)C2CCN(S(=O)(=O)c3ccc4c(c3)OCCCO4)CC2)cc1,"inconclusive: 20.6 µM [cytotoxic, single point]",
Cc1c(CCO)sc[n+]1CC(=O)c1ccc(F)cc1,,inactive: 6.56%
CCOCCCNC(=O)/C(C#N)=C/c1ccc(-c2ccc(S(=O)(=O)N3CCOCC3)cc2)o1,active: 16.4 µM,
CNC(=O)NC(=O)C(C)OC(=O)c1c2c(nc3ccccc13)/C(=C/c1cccs1)CC2 (configuration not stated),active: 5.17 µM,
CCOc1ccc(CC(=O)Nc2c(C(=O)c3ccc(F)cc3)oc3ccccc23)cc1OCC,,inactive: 9.56%
COc1ccc(-c2cnnc(N/N=C/c3ccc(C)o3)n2)cc1,"inconclusive: 14.6 µM [cytotoxic, partial curve, poor fit]",
COc1cc(C(=O)O/N=C2\C=CC(=O)C=C2C)cc(OC)c1OC,,inactive: 2.09%
COCC(C)N1CCC(n2nccc2NC(=O)CCCc2ccccc2)CC1 (configuration not stated),,inactive: 16.6%
O=C(CNS(=O)(=O)c1ccc(Br)s1)N1CCN(c2ncccn2)CC1,active: 20.6 µM,
CCCCn1c(SCc2nc(N)nc(Nc3ccccc3C)n2)nc2ccccc2c1=O,"inconclusive: 29.1 µM [cytotoxic, single point]",

SMILES,Potency,"activity change, negative = cytotoxicity"
Cc1ccc2c(c1)C(=O)C(=O)N2CCOc1ccccc1,"inconclusive: 20.6 µM [cytotoxic, single point]",
Cc1nn(C)c(C)c1CN(C)C(=O)C1(C)CC1(Br)Br (configuration not stated),"inconclusive: 16.4 µM [rising, single point]",
Cc1ccccc1CSc1cn(CCNC(=O)c2cccs2)c2ccccc12,"inconclusive: 29.1 µM [cytotoxic, single point]",
COc1cc2ccccc2cc1C(=O)Nc1nnc(-c2ccncc2)o1,"inconclusive: 14.6 µM [cytotoxic, partial curve]",
COC(=O)c1ccc(C2Nc3c(C)cc(C)cc3C3C=CCC32)cc1 (configuration not stated),"inconclusive: 23.1 µM [rising, partial curve]",
CN1CCN(S(=O)(=O)c2ccc(NC(=O)COc3ccccc3Cl)cc2)CC1,"inconclusive: 29.1 µM [cytotoxic, single point]",
Cc1cc(-c2nnc(CCC(=O)NC(C)c3cccc4ccccc34)o2)no1 (configuration not stated),,inactive: -19.9%
COc1ccccc1C(C)NC(=O)Cc1ccc(S(=O)(=O)N2CCOCC2)s1 (configuration not stated),,inactive: -1.25%
O=C(NCCN1CCOCC1)c1cc(-c2ccc(Br)cc2)on1,"inconclusive: 20.6 µM [cytotoxic, partial curve, poor fit]",
C=CCn1c(SCC#N)nc2c(c1=O)C(C)(C)Cc1ccccc1-2,"inconclusive: 13 µM [cytotoxic, partial curve]",
O=C(NCCc1ccc2c(c1)OCCO2)c1ccccn1,,inactive: -21%
O=C(CSc1nc(-c2cccs2)cc(C(F)(F)F)n1)Nc1cc(OCC(F)(F)F)cc([N+](=O)[O-])c1,"inconclusive: 16.4 µM [cytotoxic, single point]",
CCCCNC(=O)c1ccc(S(=O)(=O)c2ccc(Cl)cc2)c(NC(C)=O)c1,"inconclusive: 0.0517 µM [cytotoxic, full curve]",
O=C(Nc1ccccc1C(=O)O)c1cc(S(=O)(=O)N2CCCCC2)c(Cl)cc1Cl,,inactive: 20.4%
Cc1ccnc2cc(Cl)c(Cl)cc12,"inconclusive: 29.1 µM [rising, single point]",
O=C(Nc1cccc(S(=O)(=O)c2cccc(NC(=O)C3CC3)c2)c1)C1CC1,"inconclusive: 29.1 µM [cytotoxic, single point]",
CCn1c(SCC(=O)N(C)C)nc2cc(S(=O)(=O)N3CCCCC3)ccc21,active: 20.6 µM,
CC(C)(C)NC(=O)c1cccc2c1OC(C)(C)C2,"inconclusive: 29.1 µM [rising, single point]",
Cc1ccc(S(=O)(=O)Nc2ccc(C(=O)Nc3ccncc3)cc2)cc1,,inactive: 9.33%
CN(C)CCNC(=O)C(=O)Nc1cc2c3c(c1)CCN3C(=O)CC2,"inconclusive: 29.1 µM [rising, single point]",
CC(=O)Nc1ccc(NC(=O)CC2Sc3ccccc3NC2=O)cc1 (configuration not stated),"inconclusive: 23.1 µM [rising, partial curve]",
COc1ccc(/C=N/Nc2nc(C)cc(-c3ccccc3)n2)cc1OC,,inactive: -25.4%
Cc1nn(C(C)C(=O)NCCCN2CCCC2)c(=O)c2nn(-c3ccccc3)c(C)c12 (configuration not stated),,inactive: 0%
Cc1nc(SCC(=O)Nn2c(-c3ccccc3)nc3ccccc3c2=O)n[nH]1,"inconclusive: 16.4 µM [rising, single point]",
